Some results were stated once for a whole list of compounds, not compound by compound.
Assays:
AMARE [1] = experiment: greenhouse post-emergence herbicidal test, AMARE; type: in vivo, Amaranthus retroflexus; conditions: post-emergence method, application rate 0.25 kg/ha, scale from 0 to 100
AMARE [2] = experiment: greenhouse pre-emergence herbicidal test, AMARE; type: in vivo, Amaranthus retroflexus; conditions: pre-emergence method, application rate 0.25 kg/ha, scale from 0 to 100
CHEAL = experiment: greenhouse post-emergence herbicidal test, CHEAL; type: in vivo, Chenopodium album; conditions: post-emergence method, application rate 0.25 kg/ha, scale from 0 to 100
POLCO = experiment: greenhouse post-emergence herbicidal test, POLCO; type: in vivo, Polygonum convulvulus; conditions: post-emergence method, application rate 0.25 kg/ha, scale from 0 to 100
SETVI = experiment: greenhouse post-emergence herbicidal test, SETVI; type: in vivo, Setaria viridis; conditions: post-emergence method, application rate 0.25 kg/ha, scale from 0 to 100
ECHCG [3] = experiment: greenhouse post-emergence herbicidal test, ECHCG; type: in vivo, Echinochloa crus-galli; conditions: post-emergence method, application rate 0.25 kg/ha, scale from 0 to 100
ABUTH [4] = experiment: greenhouse post-emergence herbicidal test, ABUTH; type: in vivo, Abutilon theophrasti; conditions: post-emergence method, application rate 1 kg/ha, scale from 0 to 100
Excerpt: The seeds of the test plants were sown separately for each species. For the post-emergence treatment, the test plants were first grown to a height of 3 to 15 cm, depending on the plant habit, and only then treated with the active ingredients which had been suspended or emulsified in water. For this purpose, the test plants were either sown directly and grown in the same containers, or they were first grown separately as seedlings and transplanted into the test containers a few days prior to treatment. Depending on the species, the plants were kept at 10-25° C. or 20-35° C. The test period extended over 2 to 4 weeks. During this time, the plants were tended, and their response to the individual treatments was evaluated. Evaluation was carried out using a scale from 0 to 100. 100 means no emergence of the plants, or complete destruction of at least the aerial moieties, and 0 means no damage, or normal course of growth. A good herbicidal activity is given at values of at least 70 and a very good herbicidal activity is given at values of at least 85. [table]

ABUTH [5] = experiment: greenhouse pre-emergence herbicidal test, ABUTH; type: in vivo, Abutilon theophrasti; conditions: pre-emergence method, application rate 1 kg/ha, scale from 0 to 100
AVEFA = experiment: greenhouse post-emergence herbicidal test, AVEFA; type: in vivo, Avena fatua; conditions: post-emergence method, application rate 0.25 kg/ha, scale from 0 to 100
ECHCG [6] = experiment: greenhouse pre-emergence herbicidal test, ECHCG; type: in vivo, Echinochloa crus-galli; conditions: pre-emergence method, application rate 0.25 kg/ha, scale from 0 to 100
APESV = experiment: greenhouse pre-emergence herbicidal test, APESV; type: in vivo, Apera spica-venti; conditions: pre-emergence method, application rate 0.25 kg/ha, scale from 0 to 100

SMILES | herbicidal activity against AMARE (AMARE [1]) | herbicidal activity against AMARE (AMARE [2]) | herbicidal activity against CHEAL (CHEAL) | herbicidal activity against POLCO (POLCO) | herbicidal activity against SETVI (SETVI) | herbicidal activity against ECHCG (ECHCG [3]) | herbicidal activity against ABUTH (ABUTH [4]) | herbicidal activity against ABUTH (ABUTH [5]) | herbicidal activity against AVEFA (AVEFA) | herbicidal activity against ECHCG (ECHCG [6]) | herbicidal activity against APESV (APESV)
Cc1nonc1NC(=O)c1ccc2c(c1Cl)CCS2(=O)=O [I′.A-1, 4-chloro-N-(4-methyl-1,2,5-oxadiazol-3-yl)-1,1-dioxo-2,3-dihydrobenzothiophene-5-carboxamide] | very good herbicidal activity (a very good herbicidal activity is given at values of at least 85) | very good herbicidal activity (a very good herbicidal activity is given at values of at least 85) | very good herbicidal activity (a very good herbicidal activity is given at values of at least 85) | very good herbicidal activity (a very good herbicidal activity is given at values of at least 85) |  |  |  |  |  |  | 
Cc1nonc1NC(=O)c1ccc2c(c1Cl)S(=O)(=O)CCC2(C)C [I′.A-8] | very good herbicidal activity (a very good herbicidal activity is given at values of at least 85) | very good herbicidal activity (a very good herbicidal activity is given at values of at least 85) | very good herbicidal activity (a very good herbicidal activity is given at values of at least 85) | very good herbicidal activity (a very good herbicidal activity is given at values of at least 85) | very good herbicidal activity (a very good herbicidal activity is given at values of at least 85) | very good herbicidal activity (a very good herbicidal activity is given at values of at least 85) |  |  |  |  | 
Cc1nonc1NC(=O)c1ccc2c(c1C)S(=O)(=O)CCC2(C)C [I′.A-35] |  |  |  |  |  |  | very good herbicidal activity (a very good herbicidal activity is given at values of at least 85) | very good herbicidal activity (a very good herbicidal activity is given at values of at least 85) |  |  | 
CON=C1CCS(=O)(=O)c2ccc(C(=O)Nc3nonc3C)c(C)c21 [I′.A-47] |  |  |  |  |  |  | very good herbicidal activity (a very good herbicidal activity is given at values of at least 85) | very good herbicidal activity (a very good herbicidal activity is given at values of at least 85) |  |  | 
Cc1nonc1NC(=O)c1ccc2c(c1C)C(=O)N(C)S2(=O)=O [I′.A-49] |  |  |  |  |  |  | very good herbicidal activity (a very good herbicidal activity is given at values of at least 85) | very good herbicidal activity (a very good herbicidal activity is given at values of at least 85) |  |  | 
COc1nonc1NC(=O)c1ccc2c(c1Cl)CCS2(=O)=O [I″.A-1] | very good herbicidal activity (a very good herbicidal activity is given at values of at least 85) | very good herbicidal activity (a very good herbicidal activity is given at values of at least 85) | very good herbicidal activity (a very good herbicidal activity is given at values of at least 85) | very good herbicidal activity (a very good herbicidal activity is given at values of at least 85) | very good herbicidal activity (a very good herbicidal activity is given at values of at least 85) | very good herbicidal activity (a very good herbicidal activity is given at values of at least 85) |  |  | very good herbicidal activity (a very good herbicidal activity is given at values of at least 85) | very good herbicidal activity (a very good herbicidal activity is given at values of at least 85) | very good herbicidal activity (a very good herbicidal activity is given at values of at least 85)

Reference: patent publication US9096583B2, “Substituted 1,2,5-oxadiazole compounds and their use as herbicides II” (BASF SE, priority 2011, dated 2015)
